The supplement of paper PMC12823440, “Inhibitors supercharge kinase turnover through native proteolytic circuits” (Nature, 2025)
The other results are listed elsewhere or left out. The calls rarely recur for the same compound in another form.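 In K562 cells expressing nanoluciferase-fused kinases, luminescence was recorded at 4 h intervals between 2 and 18 h, normalized as percent of control with DMSO at 100% and a positive control at 0%. A significant (2 sigma) signal drop marks a time point as decreased. The authors' rule for a hit is not shown and takes in more than the number of time points.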

These compounds were tested against ZAK (UniProt Q9NYL2) (assay: kinase-Nluc reporter destabilization hit call (1 = scored as downregulated) (binary); higher = compound decreases kinase abundance). Details: K562; 2-18 h.

kinase-Nluc reporter destabilization hit call, inactive:
O=C(Nc1ccccc1C(=O)NC1CCCCNC1=O)c1cc2ccccc2s1 (stereo unspecified) (10 µM) 0
CCOc1cc(=O)[nH]cc1-c1ccc(CC(=O)Nc2cc(C(C)(C)C(F)(F)F)on2)c(F)c1 (10 µM) 0
Cn1cnc2c(F)c(Nc3ccc(Br)cc3F)c(C(=O)NOCCO)cc21 [Binimetinib] (10 µM) 0
Cc1ccc(NC(=O)N2CCN(c3nc(N)nc4sc(-c5cccnc5)nc34)CC2)cc1 [PI4KIII beta inhibitor 3] (10 µM) 0
CC(C1CC1)n1cnc2c(NCc3cccc(C(F)(F)F)c3)nc(NCCN(C)C)nc21 (stereo unspecified) (10 µM) 0
CCn1c(N)c(C(=O)NC)c(=O)c2ccc(C#CC(C)(O)COC)nc21 (stereo unspecified) (10 µM) 0
N#Cc1cc(N2CCC(C(=O)N3N=CC[C@H]3c3cc(F)cc(F)c3)CC2)ncn1 (10 µM) 0
CN1CCN(Cc2ccc(-c3cn(C4CCC(O)CC4)c4nc(NCCC5CC5)ncc34)cc2)CC1 (stereo unspecified) (2.5 µM) 0
COc1ccc(Cl)cc1N(CC(=O)Nc1ccc2c(c1)OCO2)S(=O)(=O)c1ccccc1 (2.5 µM) 0
CS[C@@]1(C(=O)Nc2ccc3[nH]nc(-c4ccc(OC(C)C)nc4)c3c2)CCN(CC(=O)N2CC=C(c3ccc(-c4ncn(C)n4)cc3)CC2)C1 (2.5 µM) 0
CCc1cc(Nc2nccc(-c3c(-c4ccc(OC)c(C(=O)Nc5c(F)cccc5F)c4)nc4ccccn34)n2)c(OC)cc1N1CCC(N2CCN(S(C)(=O)=O)CC2)CC1 (2.5 µM) 0
